These results are taken from PMC3618516, “A Systematic Screen of FDA-Approved Drugs for Inhibitors of Biological Threat Agents” (PLoS ONE, 2013).

In the experiment the test system is Bacillus anthracis. As to the kind of experiment: microbe, parasite or virus in culture. In kind it is cell-based. To be noted: J774.A1, 15 h, read-out: Bacillus anthracis ICR (% protection).

Take `CCC[C@@H]1C[C@@H](C(=O)N[C@@H]([C@H]2O[C@H](SC)[C@H](O)[C@@H](O)[C@H]2O)[C@H](C)Cl)N(C)C1` [Clindamycin]: the inhibition at 50 µM was 92%.
